For series [1], the target named is PDGF-AA (UniProt P04085). Nature of the series: activity in cells. The note with it: 2'-F C and U; inhibits PDGF-AA induced 3T3 proliferation, not very potent; purified recombinant protein; protein details: R&D Systems; dose not given here.
Series [2] has as its target PDGF-BB (Homo sapiens) (UniProt P01127). Put plainly: activity in cells. Conditions: purified recombinant protein, protein details: PeproTech; for functional effect of the aptamer: 2'-F C and U, no effect on PDGF-BB induced 3T3 proliferation, dose not given here; for IC50: 3T3 proliferation.
For series [3], the system named is PDGF-AA (Homo sapiens). Nature of the series: competition with a labelled probe. The note with it: DNA with s1 fU6 fC8 mG9; s2 mG5 mG7 fU10 fC11 mA12; s3 fC5 fC6 fU7 mG8 (f=2'-F, m=2'-OMe); HEG spacers between segments; 3'-inverted dT; does not bind PDGF-AA; purified recombinant protein; protein details: PeproTech.
Series [4] addresses PDGF-BB (Homo sapiens) (UniProt P01127). Put plainly: competition with a labelled probe. Conditions: purified recombinant protein, protein details: PeproTech; for Kd: PBS, RT; for binding result: HEG spacers, variant of ARC126.
Series [5] deals with VEGF. Put plainly: FP filter. The note with it: DNA with s1 fU6 fC8 mG9; s2 mG5 mG7 fU10 fC11 mA12; s3 fC5 fC6 fU7 mG8 (f=2'-F, m=2'-OMe); HEG spacers between segments; 3'-inverted dT; recognizes PDGF but not VEGF; purified recombinant protein.
Series [6] relates to PDGF-AB (Homo sapiens). Nature of the series: competition with a labelled probe. The note with it: PEG-conjugated ARC513 (PEG size per image, not given); 2'-OMe as ARC513; PEG spacers; PBS, BSA, tRNA, RT; purified recombinant protein; protein details: PeproTech; variant of ARC513.

For part of these data: No signal at the amounts used counts as a negative. For part of these data: The exact form of at least one protein or probe is not confirmed.

Regarding “GGGAAAAGCGAAUCAUACACAAGACCGGGAACUCGGAUUCUUCGCAUGUGGAUGCGAUCAGUAUGCUCCGCCAGAGACCAACCGAGAA [ARX33P1.D2]”, the “functional effect of the aptamer” value in series [1] is “active”; in series [2], “not active”.
Consider CAGGCUACGCGTAGAGCAUCATGATCCUG [ARC126], for which the binding result in series [3] and in series [5] was “no binding” in each case. For the same sequence, the Kd in series [4] (DNA with s1 fU6 fC8 mG9, s2 mG5 mG7 fU10 fC11 mA12, s3 fC5 fC6 fU7 mG8 (f=2'-F, m=2'-OMe), HEG spacers between segments, 3'-inverted dT, dot blot, 0.2 mg/mL BSA, 0.02 mg/mL tRNA) was found to be 0.1 nM. Further, in series [2] (DNA with s1 fU6 fC8 mG9, s2 mG5 mG7 fU10 fC11 mA12, s3 fC5 fC6 fU7 mG8 (f=2'-F, m=2'-OMe), HEG spacers between segments, 3'-inverted dT, 50 ng/ml PDGF-BB), the IC50 turned out to be 3.4 nM.
As to “GGGAAAAGCGAAUCAUACACAAGACCGGAAACUCGGAUUCUUCGCAUGUGGAUGCGAUCAGUAUGCUCCGCCAGAGACCAACCGAGAA [ARX33P1.E10]”, the “functional effect of the aptamer” value in series [1] is reported as “active”; in series [2], “not active”.
For “GGGAAAAGCGAAUCAUACACAAGACCGGGAACUCGGAUUCUUCACAUGUGGAUGUGAUCAGUAUGCUCCGCCAGAGACCAACCGAGAA [ARX33P1.E5]” the same measures were “active” and “not active”.
Consider “CCCAGGCTACGCGTAGAGCAUCATGATCCTGGG [ARC594 (AX102)]”, for which the Kd in series [6] stood at 0.1 nM; in series [4] (PEG-conjugated ARC513 (PEG size per image, not given), 2'-OMe as ARC513, PEG spacers, BSA, tRNA, variant of ARC513), 0.09 nM. Further, the IC50 in series [2] (PEG-conjugated ARC513 (PEG size per image, not given), 2'-OMe as ARC513, PEG spacers, variant of ARC513) came to 1.95 nM.
With CAGGCUACGCGTAGAGCAUCATGATCCUG [ARC308], the binding result in series [4] (as ARC126 plus 5'-30 kDa PEG, 3'-inverted dT, less than two-fold effect vs unPEGylated ARC126) is recorded as “binds”.
CAGCGUACGCGTACCGATUCATGAAGCUG [ARC128]: the binding result in series [4] (2'-F/2'-OMe/deoxy as ARC126 type, scrambled inactive, no effect in 3T3 assay) was “no binding”.

A word on the Kd: it is the constant that tells how readily two partners part at equilibrium. By IC50 is commonly meant the concentration that gives 50% inhibition.

The values are drawn from patent US20090053138.
